Consider 1 sequence from PMC4703840.

Protein sequences can lack the tags named with them.

The data set deals with T1, ExuR (Escherichia coli TOP10) (UniProt P0ACL3).
T1 sequence (looked up): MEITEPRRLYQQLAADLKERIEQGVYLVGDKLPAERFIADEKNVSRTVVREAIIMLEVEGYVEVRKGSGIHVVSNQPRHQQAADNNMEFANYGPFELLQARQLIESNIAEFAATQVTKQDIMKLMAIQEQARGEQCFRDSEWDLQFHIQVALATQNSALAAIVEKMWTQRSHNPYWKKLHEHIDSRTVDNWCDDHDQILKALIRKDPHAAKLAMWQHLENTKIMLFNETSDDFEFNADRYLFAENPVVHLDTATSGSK
Description: DNaseI footprinting. Conditions: poly-dIdC 1 µg; 7.5 mM Tris-HCl pH 7.4, 0.5 mM EDTA, 5 mM KCl, 2.5% glycerol, 0.5 mM DTT, 0.4 µg BSA, 1 µg poly-dIdC; probe 37 C 20 min, DNaseI 26 C 5 min; protein translated in vitro; residues 1-258; probe letters rebuilt from the primers and the genome.

In the case of “TGACGAGTAGACGCTGGTAGTTTCGTGCTAATTCGGCTTCCGTACCGGTTAACCCGATTCATCTAACAAATGAATGAATCGGCAATTTGCATTCCGTCGACTTATGATTTGCGACGGCAGAAAGATAACTTGTCATACAACTTTAAAAGGTGAGAGCCATCACAAATGTGGGAATATTTGTAGGGACATTACCTGACGACAGCAAGGCCAGTACTGGCGCGGCCTGCAGCGAGATTTACCACTTTGAGAGTAATTTTTTTAACTACGTTTATTGATCTAACTCACGAAAATATCTTCGGACTCTGGAAATTGGTGTGATAACTTTGTCAGCATCGCACCATAAGCAAGCTAGCTCACTCGTTGAGAGGAAGACGAAAATGACTCCGTTTATGACTGATCGATACCGTCGACCTCGA (double strand) [exuT promoter]”, the binding result is reported as “binds”.
